Data source: PubChem BioAssay AID743121 (NCATS, 2013)
The whole screen tested about 26,000 reagents; shown is a random part of them. Of all reagents, 167 (0.63%) were called active. 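Calls are per gene from RSA p-values that are not deposited; an individual active-marked siRNA can sensitise only weakly.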 Reagents against one gene are numbered here.

- Aim: 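Knock-downs that sensitise breast cancer cells to camptothecin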 (primary screen)
- Cell system: MDA-MB-231 cells, a human breast cancer line
- Knock-down reagent: single siRNA against human genes, 20 nM siRNA (0.8 pmol per well)
- Time to read-out: 120 h (drug added 48 h after transfection, read 72 h later)
- Treatment: camptothecin 20 nM (about EC30) for 72 h; vehicle 0.1% DMSO in parallel plates
- Detection: 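Cell viability by ATP luminescence (CellTiter-Glo) as % of non-targeting siRNA wells, and the log2 ratio of viability without drug over viability with camptothecin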
- Direction: log2 vehicle/camptothecin viability: higher = stronger sensitisation to camptothecin; viability with camptothecin and viability without drug: higher = more viable cells
- Hit rule: 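Active genes have an RSA gene-level p-value below 0.001, computed from the ratios of their separate siRNAs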

The opening 8 records, to show the layout:
no.	gene	reagent	log2 vehicle/camptothecin viability	viability with camptothecin (% of control)	viability without drug (% of control)	Outcome
1	PLPP2 (GeneID 8612)	1	0.324	31	38.8	inactive
2	PLPP2 (GeneID 8612)	2	-0.072	102	97.2	inactive
3	PLPP2 (GeneID 8612)	3	-0.176	78	69	inactive
4	PLPP2 (GeneID 8612)	4	-0.259	47.4	39.7	inactive
5	PDE7A (GeneID 5150)	1	-0.468	98.1	71	inactive
6	PDE7A (GeneID 5150)	2	-0.137	36.2	32.9	inactive
7	PDE7A (GeneID 5150)	3	-1.27	13.4	5.53	inactive
8	PDE7A (GeneID 5150)	4	0.00718	92.2	92.6	inactive

Main list, repeating the preview:
no.	gene	reagent	log2 vehicle/camptothecin viability	viability with camptothecin (% of control)	viability without drug (% of control)	Outcome
1	PLPP2 (GeneID 8612)	1	0.324	31	38.8	inactive
2	PLPP2 (GeneID 8612)	2	-0.072	102	97.2	inactive
3	PLPP2 (GeneID 8612)	3	-0.176	78	69	inactive
4	PLPP2 (GeneID 8612)	4	-0.259	47.4	39.7	inactive
5	PDE7A (GeneID 5150)	1	-0.468	98.1	71	inactive
6	PDE7A (GeneID 5150)	2	-0.137	36.2	32.9	inactive
7	PDE7A (GeneID 5150)	3	-1.27	13.4	5.53	inactive
8	PDE7A (GeneID 5150)	4	0.00718	92.2	92.6	inactive
9	CACNG7 (GeneID 59284)	1	-0.361	72	56.1	inactive
10	CACNG7 (GeneID 59284)	2	0.0696	51.9	54.5	inactive
11	CACNG7 (GeneID 59284)	3	-0.152	96.6	87	inactive
12	CACNG7 (GeneID 59284)	4	-0.528	74.2	51.4	inactive
13	MAP3K3 (GeneID 4215)	1	-0.22	84.7	72.7	inactive
14	MAP3K3 (GeneID 4215)	2	1.82	23.3	82.4	inactive
15	MAP3K3 (GeneID 4215)	3	-0.768	37.6	22.1	inactive
16	MAP3K3 (GeneID 4215)	4	0.0574	65.3	68	inactive
17	FOLH1 (GeneID 2346)	1	0.0552	58	60.3	inactive
18	FOLH1 (GeneID 2346)	2	-0.0811	55.7	52.6	inactive
19	FOLH1 (GeneID 2346)	3	-0.095	112	105	inactive
20	FOLH1 (GeneID 2346)	4	-0.114	104	96.4	inactive
21	PPOX (GeneID 5498)	1	-0.372	77	59.5	inactive
22	PPOX (GeneID 5498)	2	0.127	39.5	43.2	inactive
23	PPOX (GeneID 5498)	3	-0.285	21.8	17.9	inactive
24	PPOX (GeneID 5498)	4	-0.472	79	56.9	inactive
25	SOD2 (GeneID 6648)	1	0.523	64.9	93.3	inactive
26	SOD2 (GeneID 6648)	2	-0.365	62.5	48.6	inactive
27	SOD2 (GeneID 6648)	3	-0.103	71.9	67	inactive
28	SOD2 (GeneID 6648)	4	-0.0797	106	100	inactive
29	NOS3 (GeneID 4846)	1	0.187	47.3	53.9	inactive
30	NOS3 (GeneID 4846)	2	0.317	25.1	31.2	inactive
31	NOS3 (GeneID 4846)	3	-0.259	84.1	70.3	inactive
32	NOS3 (GeneID 4846)	4	0.0742	63	66.3	inactive
33	DPP8 (GeneID 54878)	1	-0.428	47.4	35.2	inactive
34	DPP8 (GeneID 54878)	2	-0.103	96.5	89.9	inactive
35	DPP8 (GeneID 54878)	3	-0.144	124	112	inactive
36	DPP8 (GeneID 54878)	4	-0.102	108	101	inactive
37	GSN (GeneID 2934)	1	-0.294	71.2	58.1	inactive
38	GSN (GeneID 2934)	2	-0.269	62.5	51.8	inactive
39	GSN (GeneID 2934)	3	-0.569	77.4	52.1	inactive
40	GSN (GeneID 2934)	4	0.136	46.5	51.1	inactive
41	FCN1 (GeneID 2219)	1	-0.309	60.1	48.5	inactive
42	FCN1 (GeneID 2219)	2	-0.318	53.6	43	inactive
43	FCN1 (GeneID 2219)	3	-0.261	101	84.1	inactive
44	FCN1 (GeneID 2219)	4	0.0243	76.7	78.1	inactive
45	ATP4B (GeneID 496)	1	-0.398	69.8	53	inactive
46	ATP4B (GeneID 496)	2	-0.504	64	45.1	inactive
47	ATP4B (GeneID 496)	3	-0.205	112	97.5	inactive
48	ATP4B (GeneID 496)	4	-0.206	85.7	74.3	inactive
49	MMP1 (GeneID 4312)	1	-0.128	90.4	82.7	inactive
50	MMP1 (GeneID 4312)	2	-0.231	84.9	72.3	inactive
51	MMP1 (GeneID 4312)	3	-0.301	83.8	68	inactive
52	MMP1 (GeneID 4312)	4	0.0986	76.2	81.6	inactive
53	TMPRSS11E (GeneID 28983)	1	-0.194	95.6	83.5	inactive
54	TMPRSS11E (GeneID 28983)	2	-0.31	84.8	68.4	inactive
55	TMPRSS11E (GeneID 28983)	3	0.352	14.9	19	inactive
56	MAST3 (GeneID 23031)	1	-0.21	114	98.4	inactive
57	MAST3 (GeneID 23031)	2	-0.0216	69.2	68.2	inactive
58	MAST3 (GeneID 23031)	3	-0.415	11.3	8.49	inactive
59	MAST3 (GeneID 23031)	4	-0.0376	51.9	50.6	inactive
60	TRMT61A (GeneID 115708)	1	-0.123	75.3	69.2	inactive
61	TRMT61A (GeneID 115708)	2	-0.459	63.3	46	inactive
62	TRMT61A (GeneID 115708)	3	-0.667	106	66.8	inactive
63	TRMT61A (GeneID 115708)	4	-0.378	71.4	54.9	inactive
64	HCST (GeneID 10870)	1	-0.205	53.8	46.7	inactive
65	HCST (GeneID 10870)	2	-0.159	69.7	62.5	inactive
66	HCST (GeneID 10870)	3	-0.144	92.1	83.3	inactive
67	HCST (GeneID 10870)	4	-0.178	29.5	26.1	inactive
68	SERPINB4 (GeneID 6318)	1	0.106	85.2	91.7	inactive
69	SERPINB4 (GeneID 6318)	2	0.0493	22	22.8	inactive
70	SERPINB4 (GeneID 6318)	3	0.327	69.9	87.7	inactive
71	HTR2A (GeneID 3356)	1	-0.0562	52.3	50.3	inactive
72	HTR2A (GeneID 3356)	2	-0.00702	95.6	95.2	inactive
73	HTR2A (GeneID 3356)	3	-0.342	123	96.8	inactive
74	HTR2A (GeneID 3356)	4	0.0986	55.8	59.7	inactive
75	PDLIM5 (GeneID 10611)	1	-0.161	112	99.8	inactive
76	PDLIM5 (GeneID 10611)	2	-0.452	107	78	inactive
77	PDLIM5 (GeneID 10611)	3	0.532	66.3	95.9	inactive
78	PDLIM5 (GeneID 10611)	4	0.237	79.5	93.7	inactive
79	AQP5 (GeneID 362)	1	-0.36	27.7	21.6	inactive
80	AQP5 (GeneID 362)	2	-0.368	86.3	66.9	inactive
81	AQP5 (GeneID 362)	3	-0.386	75.7	57.9	inactive
82	USP12 (GeneID 219333)	1	-0.101	112	105	inactive
83	USP12 (GeneID 219333)	2	-0.537	61.8	42.6	inactive
84	USP12 (GeneID 219333)	3	-0.316	129	103	inactive
85	USP12 (GeneID 219333)	4	0.0322	96.3	98.5	inactive
86	TACSTD2 (GeneID 4070)	1	-0.0615	68.5	65.6	inactive
87	TACSTD2 (GeneID 4070)	2	0.0268	101	103	inactive
88	TACSTD2 (GeneID 4070)	3	-0.0367	71.5	69.7	inactive
